From PubChem BioAssay AID1347426 (Functional Genomics Laboratory (NCATS/FGL), 2020)
In all, about 31,000 sequences went through this assay and about 1,400 (4.5%) were called active.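 Rule for the calls: active = median seed-adjusted z-score above 1 or below -1; inactive = the rest.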 The list shows a part of the results.

Assay: Novel Modifiers of Survival Motor Neuron (SMN) Protein: Gene Identification via Genome-wide siRNA Screen;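 note: luminescence tracks full-length SMN protein made from the SMN2 reporter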
Conditions: HEK293T SMN2-luciferase reporter, siRNA knockdown, 72 h; actives lie on both sides
Method in brief: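 Luciferase signal, proportional to full-length SMN made from an SMN2 cDNA reporter in stable HEK293T cells, was read 72 h after siRNA reverse transfection. Values were expressed as MAD scores after non-targeting-control normalization and log10 conversion; seed analysis flagged off-targets.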

Row | Sequence | median seed-adjusted z-score
1 | GCAUUUACCAGUGACCAUATT against FECH | inactive: 0.135
2 | GGAUCGUGUUUAUGAAGAATT against MS4A2 | inactive: 0.155
3 | AGCCUGUUCUCAUCACCAUTT against TAPBP | inactive: -0.786
4 | CCCGGUCAUUGGUGAUUCATT against DHTKD1 | inactive: 0.591
5 | GCGCCGUCAUGAAACAGUUTT against RBM14 | inactive: -0.0317
6 | CGGUGACUUCGCAAGCAAATT against POLR2J | inactive: 0.0437
7 | GCCUGAUAACGUAAUAACATT against ARSA | inactive: 0.0938
8 | GGGUGAAUCCAGAGAACAATT against DND1 | inactive: 0.157
9 | ACCGCGACUUCAUCAAGAATT against EEF1A2 | inactive: -0.64
10 | CGUGGGAUGCUCAAAGAUATT against EZR | inactive: 0.0344
11 | CCAUCGUUUUGGGCACUUUTT against ATP2B3 | inactive: 0.0848
12 | GCACUAAUGGAAAUUAUGATT against PEX6 | inactive: -0.281
13 | CGCGAGAACUUCUACCAAATT against TNC | inactive: -0.253
14 | GCUCAUCGAGAUGAUAUAUTT against SCN3B | inactive: 0
15 | GAGAAAUAUGUAUACAGUATT against ZMAT3 | inactive: 0.979
16 | AGCAGAUUCUGACGCAGUATT against UCK1 | inactive: -0.599
17 | GAGGCAACAUGAGUGAGAATT against ZNF768 | inactive: 0.169
18 | GGCUCUUGGAAUAACUGAATT against SERPINI1 | inactive: 0.127
19 | GUACUUACCUUAUUCGACATT against ZNF287 | inactive: 0.0213
20 | GGAUAUAUUUGAGACCCGUTT against MSTN | inactive: -0.639
21 | GACUCACAAGAAACCUAUATT against OSMR | inactive: 0.548
22 | GCAGAAUUCUGACGAUGAUTT against LEO1 | active: 1.2

Row | Sequence | median seed-adjusted z-score
23 | CCAACCUGCUGGUUGUUCATT against ZNF628 | inactive: -0.121
24 | CAGUCGCUGGUGUGACAAATT against DDX3X | inactive: 0.0136
25 | GGUCAGUGCGGAUAACUAUTT against IL4R | inactive: 0
26 | CACUAUUUCGAACGAAAAATT against ST6GALNAC2 | inactive: 0
27 | CCUCAAUCCUUGUCUGGUATT against FEV | inactive: 0.174
28 | CCAUAGCCCAAAUCAAGGATT against SIK2 | inactive: 0.055
29 | CUUCAUCCGUGAGAUCAGATT against RASEF | inactive: 0.299
30 | AGAUGUCCAAUUUGAUGAATT against ATP6V1E1 | inactive: -0.312
31 | GCACCUCCACGGUUCAGAATT against RS1 | inactive: -0.684
32 | CAUUUAGUGUACAUUCAAATT against ZNF665 | active: 1.13
33 | CUGAGACCCUGUUGACUGATT against PGS1 | active: 1.36
34 | AGACUUUCAUGAUCGACGATT against BARX2 | inactive: -0.206
35 | GGAUUAUGCAAUCUCCAAATT against ZNF783 | inactive: 0.284
36 | CACCAGACCUAGUCUUUAATT against NR3C2 | inactive: -0.0918
37 | GGAUCAGCUGUGAAGAGUATT against RGS4 | inactive: 0
38 | GAGAUUUACCGCAUUGUUUTT against RAB11A | inactive: -0.0554
39 | GAGCAUUGGUUGCAUCUUUTT against CDK3 | inactive: 0.000485
40 | GCAUUGGAAGUGAAAACAATT against FCAMR | inactive: 0.137
41 | CAUUCGCAAAGGAUCGUGATT against PAPSS2 | inactive: -0.201
42 | CAUGUGCUAUCGAAAGUAUTT against TCEB1 | active: 1.08
43 | UAGCUACUUCGAUUCUUUUTT against PLA2G12B | inactive: -0.162
44 | GUAUGGUGAUGAUCGAAUUTT against KIFAP3 | inactive: 0.403

Row | Sequence | median seed-adjusted z-score
45 | GGUGGAAAACGGCAAAGUUTT against B3GAT2 | inactive: 0.33
46 | GCGUAUGGGAUUACAAGAATT against PAFAH1B1 | inactive: 0.391
47 | CAGCCUACCUGGUUGUAGATT against VARS2 | inactive: 0.288
48 | GAGCUUCUGUUGAACGGCATT against POLR3C | inactive: -0.294
49 | GGAUCUUCGUGAAGUAUUUTT against TRA2A | inactive: -0.187
50 | AGACAUUACUUCCAAAACATT against GALNTL2 | inactive: 0.164
51 | AGCUCAACGUGCUGGAUUATT against PIP5KL1 | inactive: -0.819
52 | AGAAUUCUUCGAUCACAAATT against KCNMB3 | inactive: 0.513
53 | CGAGCUAGUUGAUGACCAUTT against TSEN2 | inactive: 0
54 | GGAACCUAAUUAUCUGCAUTT against KMO | inactive: 0.443
55 | GGUGCAGAUUGAUCAGAUUTT against PLSCR3 | inactive: 0
56 | CGUCGUGACUUGAGGAUAATT against DYNC1H1 | inactive: 0
57 | CAGCCUACUUCAUAGCCUATT against GPR50 | inactive: -0.0348
58 | CCGACGUGGUGGUAUACAATT against HDAC11 | inactive: 0.259
59 | UGAGAAUUGUGGAUCCGGATT against CSTF2 | inactive: 0.586
60 | CCACCUACACUGUCCGUGUTT against COL20A1 | inactive: -0.0033
61 | GAUACAGUCUACGCAGUUATT against ATPAF1 | inactive: 0.393
62 | CUCUUUGACGUGUCUCAUATT against AMT | inactive: -0.506
63 | GCUAAACAUUGGAUACAUATT against SERPINB2 | inactive: -0.0739
64 | GGUCAAACAAUGUCGCUUUTT against COPB2 | inactive: -0.61
65 | GCAAAUACCCAACCCUCAATT against TXNDC4 | inactive: 0.351
66 | GCUAUAAACUUAUUAGGCATT against ZNF180 | inactive: 0

Fetched one by one from the entries so far, four records:
Row | Sequence | median seed-adjusted z-score
47 | CAGCCUACCUGGUUGUAGATT against VARS2 | inactive: 0.288
56 | CGUCGUGACUUGAGGAUAATT against DYNC1H1 | inactive: 0
51 | AGCUCAACGUGCUGGAUUATT against PIP5KL1 | inactive: -0.819
64 | GGUCAAACAAUGUCGCUUUTT against COPB2 | inactive: -0.61

(listing goes on)

Row | Sequence | median seed-adjusted z-score
67 | GCAUUUGUCUGUUUGAUAUTT against POLR3H | inactive: 0
68 | GACCGUCACCAUUAAGGAATT against CBX8 | inactive: -0.207
69 | GGAAAAUGAAUUCAGAGGATT against DIABLO | inactive: 0.913
70 | ACACUGAUCUGACUACCAUTT against LRRC15 | inactive: -0.723
71 | GUACUUCCUCAAUCACAUATT against WWTR1 | inactive: -0.579
72 | CCUACCAUCUUGGAUAGAATT against RAB33B | inactive: -0.758
73 | GAAGGAGUAUUCGUGAUUATT against DIS3L | inactive: 0
74 | GGACAUCGCACUGAUCUUUTT against PIGK | inactive: -0.456
75 | GGAACGAAGAGAACUAGAATT against OFD1 | inactive: 0
76 | GGUUGACAGUUACCGAAUUTT against ACACB | inactive: 0.31
77 | GAAGCAAGAAGUUCGGGAATT against CETN1 | inactive: 0.236
78 | GGAUGCUCCGGACCUGUUATT against PRODH2 | inactive: 0.817
79 | AGACUCAGAUCAUGCUGAATT against KLRC3 | inactive: 0.833
80 | CCAUCCAUACAUUAGGUUUTT against MMP27 | inactive: -0.084
81 | GGAUCACUCAUACUAGGGATT against ZNF473 | inactive: -0.166
82 | GCACGACUUUCACCACGUATT against RAX | inactive: -0.176
83 | CCUUGUGCCUUGCAACUCUTT against LPAR4 | inactive: -0.321
84 | GGGACUUGCUGAUUCAAGATT against GIP | inactive: 0
85 | CGAUGUCAGUAGGAACCUUTT against PSMC1 | active: -2.23
86 | GCAUUUCUCCUGUUUGACATT against MYL1 | inactive: 0.24
87 | CCAAGAAACUGCGAGACAATT against CNGA2 | inactive: -0.0447
88 | GGAGAAUACCCUCCAGGAATT against CNOT7 | inactive: 0.716

Row | Sequence | median seed-adjusted z-score
89 | GCAAGAUCAUCGCAGAGAATT against TOR1A | inactive: -0.231
90 | GCACCCAACCUGUCCAUCATT against PRPF31 | inactive: -0.592
91 | GGAUAUUGGUCAGCGGCAATT against SPTB | inactive: 0.153
92 | GCUUGUUACUGAACUUCGATT against HACE1 | inactive: 0
93 | GUGAUAUCAUUGAGCCUAATT against PPARD | inactive: 0.0283
94 | GGCUGACACUCACGAUGAATT against SERPINA1 | inactive: 0.00292
95 | CAAUGAAGACUGAUGUAUUTT against SLC9A2 | active: -1.02
96 | CACCAGCUUCGGACCAUGATT against LHX2 | inactive: 0.464
97 | GGAUACUCCCUGCAUGAUATT against GPR34 | inactive: 0.529
98 | GCAACAACGUGUCCUUCGATT against GPR132 | inactive: 0
99 | AGAAAAUUACCAUGCAGAATT against KRT15 | inactive: 0.756
100 | GCAUCUUUUGGAGAUCGAATT against TC2N | inactive: 0.461
101 | CGGAUACGCUAAAAAUCAATT against B3GNTL1 | inactive: 0
102 | GGUCUAGCCUGGGUAUGAATT against PLA2G2F | inactive: 0.508
103 | GACACUUGCUUAGAAGUAATT against LRP12 | inactive: 0.416
104 | GUCCAGAUCUUAUUACCUATT against ABLIM1 | inactive: 0.115
105 | GGACAAUGAUGGGUUCCCATT against ITGA9 | inactive: 0
106 | GGAUCUGGUUCAACUUGGATT against FUT3 | inactive: 0.11
107 | AGCUAGCUACGAAUCCAAATT against FOXRED2 | inactive: 0.0294
108 | CGUGCUCAACAGCAAAGAATT against PIGL | inactive: 0.827
